Laboratory results from doi:10.64898/2025.12.08.692985.
No constants are given. Whether binding was seen depends on the method and setting. Some results given as binding are weak or reduced against the parent protein; the word gives no strength.

Sequences of proteins named here, by UniProt entry; tags and fusion partners are left off. Residues count along the entry.
UniProt Q8BX09, whole entry: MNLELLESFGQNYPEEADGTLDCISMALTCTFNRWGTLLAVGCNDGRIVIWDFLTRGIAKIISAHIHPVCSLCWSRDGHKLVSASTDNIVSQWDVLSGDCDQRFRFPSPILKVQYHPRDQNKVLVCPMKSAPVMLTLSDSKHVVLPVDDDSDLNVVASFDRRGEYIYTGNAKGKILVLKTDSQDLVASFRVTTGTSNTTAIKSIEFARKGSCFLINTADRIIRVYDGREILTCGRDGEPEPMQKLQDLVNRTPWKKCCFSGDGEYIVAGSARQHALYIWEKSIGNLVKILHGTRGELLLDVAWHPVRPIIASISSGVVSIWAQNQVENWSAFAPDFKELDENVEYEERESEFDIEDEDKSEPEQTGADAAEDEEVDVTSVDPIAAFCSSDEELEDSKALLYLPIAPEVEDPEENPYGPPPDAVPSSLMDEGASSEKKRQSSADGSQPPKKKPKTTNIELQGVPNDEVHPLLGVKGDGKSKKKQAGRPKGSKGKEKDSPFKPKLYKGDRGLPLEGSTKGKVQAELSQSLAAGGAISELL
UniProt Q9CWW7, whole entry: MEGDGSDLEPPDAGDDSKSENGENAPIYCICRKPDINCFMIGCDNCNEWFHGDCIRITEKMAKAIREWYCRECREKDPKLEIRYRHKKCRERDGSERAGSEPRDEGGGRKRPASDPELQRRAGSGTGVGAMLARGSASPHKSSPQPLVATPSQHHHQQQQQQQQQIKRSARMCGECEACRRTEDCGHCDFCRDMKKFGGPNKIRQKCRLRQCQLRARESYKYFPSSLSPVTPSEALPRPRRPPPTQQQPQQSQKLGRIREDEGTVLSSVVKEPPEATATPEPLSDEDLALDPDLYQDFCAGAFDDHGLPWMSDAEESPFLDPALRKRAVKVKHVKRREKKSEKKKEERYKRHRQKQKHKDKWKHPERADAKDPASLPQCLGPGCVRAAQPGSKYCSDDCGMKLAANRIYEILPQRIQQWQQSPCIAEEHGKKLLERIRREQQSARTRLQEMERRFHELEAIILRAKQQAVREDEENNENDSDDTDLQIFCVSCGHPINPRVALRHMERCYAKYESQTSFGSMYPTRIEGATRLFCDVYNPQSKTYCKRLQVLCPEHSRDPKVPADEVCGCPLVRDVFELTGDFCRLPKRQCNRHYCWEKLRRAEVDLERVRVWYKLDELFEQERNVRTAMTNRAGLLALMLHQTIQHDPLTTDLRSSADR
UniProt Q91X20, whole entry: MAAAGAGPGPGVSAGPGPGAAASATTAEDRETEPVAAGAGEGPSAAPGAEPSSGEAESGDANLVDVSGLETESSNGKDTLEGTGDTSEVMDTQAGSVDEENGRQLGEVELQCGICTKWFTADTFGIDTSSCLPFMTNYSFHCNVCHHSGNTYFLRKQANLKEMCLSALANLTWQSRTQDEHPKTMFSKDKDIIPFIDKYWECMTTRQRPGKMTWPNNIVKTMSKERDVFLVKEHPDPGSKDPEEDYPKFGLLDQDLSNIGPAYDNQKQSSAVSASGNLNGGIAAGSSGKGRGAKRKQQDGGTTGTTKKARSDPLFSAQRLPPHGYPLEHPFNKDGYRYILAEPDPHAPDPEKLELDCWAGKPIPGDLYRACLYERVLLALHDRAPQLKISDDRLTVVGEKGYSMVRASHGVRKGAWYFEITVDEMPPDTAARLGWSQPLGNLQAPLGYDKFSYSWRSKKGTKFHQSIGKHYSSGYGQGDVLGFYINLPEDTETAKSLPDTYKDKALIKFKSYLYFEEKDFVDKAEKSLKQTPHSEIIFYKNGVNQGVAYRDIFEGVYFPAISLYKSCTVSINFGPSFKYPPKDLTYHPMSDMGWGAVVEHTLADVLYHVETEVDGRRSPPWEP
UniProt Q8CFT2, 1185-1985: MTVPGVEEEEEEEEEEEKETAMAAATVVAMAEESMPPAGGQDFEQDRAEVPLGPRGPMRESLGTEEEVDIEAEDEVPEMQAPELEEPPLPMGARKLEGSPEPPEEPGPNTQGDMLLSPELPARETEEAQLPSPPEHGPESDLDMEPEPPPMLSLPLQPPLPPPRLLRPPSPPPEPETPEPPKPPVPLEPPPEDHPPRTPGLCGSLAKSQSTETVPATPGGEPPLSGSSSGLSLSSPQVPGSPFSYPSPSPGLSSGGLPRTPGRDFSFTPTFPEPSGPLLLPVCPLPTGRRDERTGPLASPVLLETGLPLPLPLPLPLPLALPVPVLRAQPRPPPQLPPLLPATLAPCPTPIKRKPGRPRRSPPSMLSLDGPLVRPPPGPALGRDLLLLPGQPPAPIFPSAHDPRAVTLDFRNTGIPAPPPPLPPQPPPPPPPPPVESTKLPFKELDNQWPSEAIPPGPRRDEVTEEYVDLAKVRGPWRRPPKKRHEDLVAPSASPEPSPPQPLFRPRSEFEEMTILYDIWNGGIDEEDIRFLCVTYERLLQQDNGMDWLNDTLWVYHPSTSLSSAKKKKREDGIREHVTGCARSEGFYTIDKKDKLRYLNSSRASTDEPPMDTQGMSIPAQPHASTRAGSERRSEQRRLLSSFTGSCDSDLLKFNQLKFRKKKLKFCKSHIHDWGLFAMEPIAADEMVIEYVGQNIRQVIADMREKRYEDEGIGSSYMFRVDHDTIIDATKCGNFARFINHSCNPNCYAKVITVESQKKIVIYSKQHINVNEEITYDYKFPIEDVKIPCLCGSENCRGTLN

Legend:
Assay in all cases: SEC
[1] = target: RBBP5 (mouse (endogenous in E14 mESCs)) (UniProt Q8BX09)
[2] = target: CFP1 (mouse (endogenous in E14 mESCs)) (UniProt Q9CWW7)
[3] = target: ASH2L (mouse (endogenous in E14 mESCs)) (UniProt Q91X20)

Measured: binding

dTAG-SET1B-C (from UniProt Q8CFT2 1185-1985)
binds: [1] | [2] | [3]
